The text below walks through data of US20260085322.

For at least one entry, the source does not settle the construct or the ends of the probe. Results from cells or extracts need not show a direct contact. Protein sequences can lack the tags named with them.

The target of the data set is T1, RBFOX2 (Mus musculus) (UniProt Q8BP71).
T1 sequence (looked up, limits assumed): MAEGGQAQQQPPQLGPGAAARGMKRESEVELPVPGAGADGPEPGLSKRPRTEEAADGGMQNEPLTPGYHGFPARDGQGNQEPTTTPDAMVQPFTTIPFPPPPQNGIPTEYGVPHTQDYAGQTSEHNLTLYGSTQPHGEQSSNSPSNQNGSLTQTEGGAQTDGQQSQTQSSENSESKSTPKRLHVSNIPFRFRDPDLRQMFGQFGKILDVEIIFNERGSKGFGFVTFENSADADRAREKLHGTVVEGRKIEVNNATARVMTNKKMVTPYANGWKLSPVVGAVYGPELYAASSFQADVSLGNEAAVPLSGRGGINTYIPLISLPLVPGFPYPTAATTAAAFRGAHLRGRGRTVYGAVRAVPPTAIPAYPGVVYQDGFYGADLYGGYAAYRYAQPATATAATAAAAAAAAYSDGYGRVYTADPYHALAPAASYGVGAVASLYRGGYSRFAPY
Description: binding assay. The following applies: eiCLIP; motif enriched at crosslink sites; protein in cells.

In the case of “UGCAUG [RBFOX2 consensus motif (U)GCAUG]”, the binding result is given as “binds”.
